# Laboratory results: PubChem BioAssay (NCATS)
# By UniProt entry, the sequences of proteins in these tests, tags left out. Where a name states a change or a piece, a line headed by the entry shows the natural chain unless it says otherwise.
# UniProt Q8WZA2: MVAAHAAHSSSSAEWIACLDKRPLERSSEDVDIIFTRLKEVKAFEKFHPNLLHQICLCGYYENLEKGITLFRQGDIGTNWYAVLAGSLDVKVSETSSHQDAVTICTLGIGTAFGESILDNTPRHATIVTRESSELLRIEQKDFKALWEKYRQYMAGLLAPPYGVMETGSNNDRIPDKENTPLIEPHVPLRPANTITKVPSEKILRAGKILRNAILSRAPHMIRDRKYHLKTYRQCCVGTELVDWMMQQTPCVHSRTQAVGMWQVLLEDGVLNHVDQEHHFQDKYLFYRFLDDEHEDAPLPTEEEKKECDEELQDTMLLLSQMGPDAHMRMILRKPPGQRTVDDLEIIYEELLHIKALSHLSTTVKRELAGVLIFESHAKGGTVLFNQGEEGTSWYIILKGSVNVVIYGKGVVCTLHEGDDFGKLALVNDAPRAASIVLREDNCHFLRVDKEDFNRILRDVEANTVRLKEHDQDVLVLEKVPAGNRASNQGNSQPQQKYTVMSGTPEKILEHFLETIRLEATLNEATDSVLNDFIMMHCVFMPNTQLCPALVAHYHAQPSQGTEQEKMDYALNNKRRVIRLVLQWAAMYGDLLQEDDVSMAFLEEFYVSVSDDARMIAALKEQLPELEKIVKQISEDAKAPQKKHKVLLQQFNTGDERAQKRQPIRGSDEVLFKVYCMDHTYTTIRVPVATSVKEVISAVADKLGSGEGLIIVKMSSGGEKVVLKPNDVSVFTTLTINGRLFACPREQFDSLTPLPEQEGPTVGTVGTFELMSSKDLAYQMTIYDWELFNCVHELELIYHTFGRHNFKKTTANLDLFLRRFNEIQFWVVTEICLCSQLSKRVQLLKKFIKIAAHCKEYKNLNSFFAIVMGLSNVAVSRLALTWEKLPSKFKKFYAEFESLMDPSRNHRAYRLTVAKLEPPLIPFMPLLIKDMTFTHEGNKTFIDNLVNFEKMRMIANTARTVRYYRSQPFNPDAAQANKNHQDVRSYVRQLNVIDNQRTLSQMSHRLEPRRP
# UniProt Q99816: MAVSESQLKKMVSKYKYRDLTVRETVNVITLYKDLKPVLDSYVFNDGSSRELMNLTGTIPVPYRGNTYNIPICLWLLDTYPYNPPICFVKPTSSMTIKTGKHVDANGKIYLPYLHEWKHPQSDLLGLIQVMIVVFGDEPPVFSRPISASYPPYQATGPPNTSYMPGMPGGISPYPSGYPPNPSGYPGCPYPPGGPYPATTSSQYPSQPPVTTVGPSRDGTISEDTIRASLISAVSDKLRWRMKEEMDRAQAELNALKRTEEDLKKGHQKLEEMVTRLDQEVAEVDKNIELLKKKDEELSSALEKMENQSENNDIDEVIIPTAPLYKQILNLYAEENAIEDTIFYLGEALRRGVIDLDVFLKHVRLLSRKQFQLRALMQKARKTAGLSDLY
# UniProt P05177, whole entry, looked up: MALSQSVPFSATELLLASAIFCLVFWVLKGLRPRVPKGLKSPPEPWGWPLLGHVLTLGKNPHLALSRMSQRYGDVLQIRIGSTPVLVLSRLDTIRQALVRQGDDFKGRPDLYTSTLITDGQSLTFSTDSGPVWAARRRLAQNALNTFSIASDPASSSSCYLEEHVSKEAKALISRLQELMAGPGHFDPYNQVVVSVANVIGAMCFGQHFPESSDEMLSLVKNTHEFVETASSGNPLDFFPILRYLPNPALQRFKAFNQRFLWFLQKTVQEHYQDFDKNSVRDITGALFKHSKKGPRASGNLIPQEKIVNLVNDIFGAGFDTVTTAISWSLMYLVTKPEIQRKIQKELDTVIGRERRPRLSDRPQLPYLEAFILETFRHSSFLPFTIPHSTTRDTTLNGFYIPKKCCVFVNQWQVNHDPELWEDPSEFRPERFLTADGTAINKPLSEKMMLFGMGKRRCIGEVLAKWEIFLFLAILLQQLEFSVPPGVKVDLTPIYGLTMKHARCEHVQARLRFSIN
# UniProt Q07343: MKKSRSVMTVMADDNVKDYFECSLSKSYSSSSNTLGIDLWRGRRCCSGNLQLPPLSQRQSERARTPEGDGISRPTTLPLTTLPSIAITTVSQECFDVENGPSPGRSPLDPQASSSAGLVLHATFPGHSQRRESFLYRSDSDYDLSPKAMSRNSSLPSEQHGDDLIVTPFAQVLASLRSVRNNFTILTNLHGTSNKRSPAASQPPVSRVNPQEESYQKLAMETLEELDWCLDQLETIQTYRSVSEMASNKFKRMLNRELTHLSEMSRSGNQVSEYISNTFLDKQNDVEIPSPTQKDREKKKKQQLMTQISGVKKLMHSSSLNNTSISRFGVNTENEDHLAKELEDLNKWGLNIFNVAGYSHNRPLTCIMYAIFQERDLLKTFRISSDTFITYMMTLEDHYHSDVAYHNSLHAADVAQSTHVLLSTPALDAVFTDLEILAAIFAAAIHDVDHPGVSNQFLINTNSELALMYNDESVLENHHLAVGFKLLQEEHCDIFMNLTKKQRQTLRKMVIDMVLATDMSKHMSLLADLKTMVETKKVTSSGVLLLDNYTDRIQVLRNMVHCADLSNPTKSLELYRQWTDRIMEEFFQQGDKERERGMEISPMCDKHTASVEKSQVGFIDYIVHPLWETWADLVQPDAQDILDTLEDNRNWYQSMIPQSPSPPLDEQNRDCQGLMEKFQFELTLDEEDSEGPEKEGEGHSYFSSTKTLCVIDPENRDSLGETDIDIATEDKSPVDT
# Where “and” joins values, the source holds several entries; their conditions need not be identical. Identical values can stand only once. This list was built around the results that the source calls inconclusive (neither active nor inactive); the mix of calls is not that of the screen. For part of these data: A potency beside an inconclusive call is a rough fit, not a confirmed value. Calls of active or inactive are those of the source. Unless noted, calls follow the shape of the dose curve; as a rule, active = well fitted curve in the direction sought with a large enough effect; inconclusive = small, poorly fitted or top-dose-only effect, or another doubt; inactive = no such curve, though single readings can be large; an effect the other way counts as inactive or inconclusive.
# Columns and labels:
# [1] = molecular target: Rap guanine nucleotide exchange factor 4 (Homo sapiens) (UniProt Q8WZA2); test: Confirmatory qHTS for agonist of cAMP-regulated guanine nucleotide exchange factor 4 (EPAC2) (AID 1645884);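 also: nucleotide exchange releases bodipy-GDP from Rap1 and this lowers its fluorescence; nearly all actives have a fitted effect of over 65% in size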; also: potency is read from the fitted curve at half-maximal effect; as to activation: % is scaled to controls: 0 for no effect and ±100 for the full control effect
# [2] = molecular target: Rap guanine nucleotide exchange factor 4 (Homo sapiens) (UniProt Q8WZA2); test: Confirmatory qHTS for antagonist of cAMP-regulated guanine nucleotide exchange factor 4 (EPAC2) (AID 1645885); conditions: activity change, negative = inhibition: at 12.7 µM (top of the series) unless noted; also: nearly all actives have a fitted effect of over 25% in size; also: potency is read from the fitted curve at half-maximal effect; as to activity change, negative = inhibition: % is scaled to controls: 0 for no effect and ±100 for the full control effect
# [3] = molecular target: Rap guanine nucleotide exchange factor 3 (Homo sapiens) (UniProt O95398); test: Counterscreen qHTS for agonist of cAMP-regulated guanine nucleotide exchange factor 3 (EPAC1) (AID 1645889); conditions: EPAC1 Rap1B-BODIPY-GDP exchange, fluorescence; activation: at 154 µM (top of the series) unless noted; also: nearly all actives have a fitted effect of over 40% in size; also: potency is read from the fitted curve at half-maximal effect; as to activation: % of control where 0% means no effect
# Procedure, shortened: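 Rap1B–BODIPY-GDP (250 nM) with 50 uM GDP; compounds pin-transferred to 9.74 nM–152 uM final (activator) or from 7.32 nM upwards (inhibitor). Fluorescence Ex/Em 480/540 nm read at 5 and 30 min, then after adding cAMP or buffer, at room temperature.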
# [4] = molecular target: Tumor susceptibility gene 101 protein (Homo sapiens) (UniProt Q99816); test: qHTS Assay for Iinhibitors of HIV-1 Budding by Blocking the Interaction of PTAP/TSG101: Hit Validation (AID 651600); also: % is scaled to controls: 0 for no effect and ±100 for the full control effect; nearly all actives have a fitted effect of over 70% in size
# Procedure, shortened: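 Displacement of a FITC-labeled PTAP-motif peptide (50 nM) from the Tsg101 binding domain (10 uM) was monitored by fluorescence polarization after a 20 min room-temperature incubation.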
# [5] = molecular target: Cytochrome P450 1A2 (Homo sapiens) (UniProt P05177); test: p450-cyp1a2 (AID 410; calls by dose curve; also: potency is read from the fitted curve at half-maximal effect)
# Procedure, shortened: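 O-Demethylation of luciferin 6' methyl ether by human CYP1A2 is monitored as luciferase luminescence. Substrate sits at Km (100uM); enzyme is 20nM. Values are scaled to 57 uM furafylline as maximal inhibition.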
# [6] = molecular target: Mitogen-activated protein kinase 10 (Mus musculus) (UniProt Q61831); test: JNK3 AlphaScreen Assay (AID 530; active = well fitted curve in either direction with a large enough effect, not every such curve was filed as active; inconclusive = small, poorly fitted or top-dose-only effect, or another doubt;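 also: kinase came from lysate of stimulated human HepG2 cells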; also: potency is read from the fitted curve at half-maximal effect;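 as to activity change, negative = inhibition: signal reports phosphorylation of biotinylated GST-cJun 1-79 at Ser73 with 10 µM ATP; % is scaled to controls: 0 for no effect and ±100 for the full control effect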); conditions: JNK3 lysate, c-Jun phosphorylation; activity change, negative = inhibition: at 57.1 µM (top of the series)
# Procedure, shortened: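 Activity was read by AlphaScreen after JNK3-containing HepG2 lysate (cytokine pre-activated) phosphorylated biotinylated GST-cJun with 10 uM ATP at room temperature. Phospho-Ser73 cJun antibody with Protein-A acceptor beads provided detection.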
# [7] = molecular target: 3',5'-cyclic-AMP phosphodiesterase 4B (Homo sapiens) (UniProt Q07343); test: qHTS Assay for Inhibitors of PDE-IV (AID 607; active = well fitted activation curve with a large enough effect in the main read-out, with a control signal flat, not every such curve was filed as active; inconclusive = small, poorly fitted or top-dose-only effect, or effect the other way, or a change in a side signal; also: potency is read from the fitted curve at half-maximal effect); conditions: HEK293 ACTOne CNG channel cells, membrane potential fluorescence; activation (PDE inhibition): at 22.9 µM (top of the series)
# Procedure, shortened: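 HEK293 ACTOne cells with CNG channel (1000/well), endogenous PDE4; membrane potential dye, compounds up to 22.9 uM final. Fluorescence Ex 535/Em 590; RO 20-1724 (100 uM final) as reference.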
# [8] = qHTS Assay for Identification of Small Molecule Agonists for Hypoxia Response Element Signaling Pathway (AID 914; active = well fitted activation curve with a large enough effect in the signal ratio, with a control signal flat, not every such curve was filed as active; inconclusive = small, poorly fitted or top-dose-only effect, or effect the other way, or a change in a side signal; the % refers to the signal ratio; also: potency is read from the fitted curve at half-maximal effect); conditions: ME-180 (cervical carcinoma) HRE-bla reporter, beta-lactamase ratio, CoCl2, 17 h; activation: stronger effect = higher value
# Procedure, shortened: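 HRE-bla ME-180 assay for agonist-like enhancement of an EC50 CoCl2 stimulus: 17 h at 37 degrees Celsius, CCF4 for 2.5 h, ratiometric 460/530 nm signal converted to %Activity and fitted to AC50.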
# [9] = qHTS Assay for Identification of Small Molecule Agonists for Thrombopoietin (TPO) Signaling Pathway (AID 917); conditions: TPO signaling pathway reporter cells, agonist qHTS, stimulated with TPO at its EC50; activity, positive = activation: at 38.5 µM (top of the series); also: potency is read from the fitted curve at half-maximal effect
# Procedure, shortened: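 Quantitative HTS for pathway activators: compounds were pin-transferred onto IL-3-starved Ba/F3 cells expressing human TPO receptor, TPO was added at its EC50 (26 pM final), and after 24 hrs at 37 C reporter luciferase was measured.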
structure (smiles),measurement,setting,value
COCCNC(=O)CS(=O)Cc1nc(-c2ccc(Cl)cc2)oc1C (centres undefined),activation,[1],"inactive: 3.09% [at 17.1 µM, percent relative to cAMP agonist control]"
CCOC(=O)c1ccc(N(C(=O)c2ccccc2)c2ccccc2)cc1,Potency,[1],"inconclusive: 50 µM [activator, partial curve]"
same,Potency,[2],"inconclusive: 55.5 µM [inhibitor, partial curve]"
O=C(c1ccccc1)c1cccc(C(=O)c2ccccc2)c1,Potency,[1],inactive
same,Potency,[2],"inconclusive: 37.9 µM [inhibitor, partial curve]"
Cn1c(/C(C#N)=C/c2ccc(-c3ccc(S(N)(=O)=O)cc3)o2)nc2ccccc21,Potency,[1],inactive
same,Potency,[2],active: 95.3 µM
same,Potency,[3],"inconclusive: 112 µM [activator, partial curve, poor fit]"
CCCc1nn2c(=O)cc(COC(=O)c3ccc(NC(=O)COc4ccccc4F)cc3)nc2s1,Potency,[1],"inconclusive: 50.1 µM [activator, partial curve, poor fit]"
CN(Cc1ccccc1)c1nc(-c2ccc(F)cc2)cc(C(F)(F)F)n1,Potency,[1],"inconclusive: 39.8 µM [activator, single point]"
same,Potency,[2],active: 0.0849 µM
same,Potency,[3],inactive
O=C(CSCC(=O)N1CCOCC1)Nc1nc(-c2ccccc2)cs1,Potency,[1],inactive
same,Potency,[2],active: 84.9 µM
same,Potency,[3],inactive
CN1/C(=C\C=C2/C(=O)Oc3ccccc3C2=O)C(C)(C)c2ccccc21,Potency,[4],inactive
same,Potency,[1],"inconclusive: 7.94 µM [activator, single point]"
same,Potency,[2],inactive
same,Potency,[3],active: 20 µM
Cc1ccc(N2CC(NC(=O)C(=O)c3c[nH]c4ccccc34)CC2=O)cc1C (centres undefined),Potency,[1],"inconclusive: 63.1 µM [activator, partial curve]"
same,Potency,[2],"inconclusive: 2.39 µM [inhibitor, partial curve, poor fit]"
same,activation,[3],inconclusive: 29.7% [activator]
CC1=CC=CC2=NC(=O)CC(C)(C(=O)N(CC(=O)NC(C)C)C3CCCC3)N12 (centres undefined),activation,[1],"inactive: 3.39% [at 17.1 µM, percent relative to cAMP agonist control]"
same,activation,[3],inactive: 26.5% [at 30.8 µM]
CCOC(=O)C1=C(C)NC(C)=C(C(=O)OC)[C@H]1c1cccc([N+](=O)[O-])c1,Potency,[5],inconclusive: 31.6 µM [decreasing]
same,Potency,[6],"inconclusive: 31.6 µM [activator, partial curve, poor fit]"
same,"activity change, negative = inhibition",[6],inconclusive: -37.1%
same,Potency,[7],"inconclusive: 3.98 µM [activator, partial curve] and inconclusive: 15.1 µM [activator, partial curve]"
same,Potency,[8],"inconclusive: 2 µM [inhibitor, full curve]"
same,Potency,[9],"inconclusive: 10 µM [inhibitor, partial curve]"
same,Potency,[1],"inconclusive: 79.3 µM [activator, partial curve]"
same,Potency,[2],"inconclusive: 44.1 µM [inhibitor, partial curve]"
COc1ccc(Br)cc1CNc1ccc(O)cc1,Potency,[1],inactive
same,Potency,[2],"inconclusive: 84.9 µM [inhibitor, single point]"
same,Potency,[3],"inconclusive: 11.2 µM [activator, full curve]"
Cc1ccc(C23CC4CC(CC(C(=O)N(C)C)(C4)C2)C3)cc1,Potency,[1],"inconclusive: 126 µM [activator, partial curve, poor fit]"
same,Potency,[2],"inconclusive: 60.1 µM [inhibitor, partial curve]"
same,Potency,[3],"inconclusive: 1.12 µM [activator, full curve, poor fit]"
CCOC(=O)CSc1nc(C)c2cc(C)c(C)cc2n1,Potency,[1],inactive
same,Potency,[2],inactive
same,activation,[3],inconclusive: 45.3% [activator]
Cc1cc2ccccn2c1C(=O)c1ccc(Cl)c([N+](=O)[O-])c1,Potency,[1],"inconclusive: 112 µM [activator, partial curve, poor fit]"
same,Potency,[3],"inconclusive: 0.0089 µM [activator, full curve, poor fit]"
Cc1cc(C(=O)CCC(=O)N2CCN(S(=O)(=O)c3ccccc3)CC2)c(C)s1,Potency,[1],active: 112 µM
same,Potency,[3],inactive
N#Cc1c(C(F)(F)F)cc(-c2ccccc2)nc1SCc1nc(N)nc(N2CCOCC2)n1,Potency,[1],inactive
same,Potency,[2],"inconclusive: 8.49 µM [inhibitor, full curve, poor fit]"
same,Potency,[3],"inconclusive: 0.0089 µM [activator, full curve, poor fit]"
O=C1C(Cl)=C(N2CCC(C(=O)O)CC2)C(=O)c2ccccc21,Potency,[1],inactive
same,Potency,[2],inactive
same,Potency,[3],active: 15.8 µM
O=C(Nc1ccccc1OCc1ccccc1)c1ccccc1Br,Potency,[1],"inconclusive: 44.7 µM [activator, partial curve, poor fit]"
same,Potency,[2],active: 1.51 µM
same,Potency,[3],"inconclusive: 11.2 µM [activator, full curve, poor fit]"
